In article PMC2211523:
These are yes or no findings as the source states them, for the method shown.

Chains of the proteins cited; added tags and fusions are not shown. Lines headed by an entry give the natural chain unless they say otherwise; changes in a name come on top.
UniProt P31539: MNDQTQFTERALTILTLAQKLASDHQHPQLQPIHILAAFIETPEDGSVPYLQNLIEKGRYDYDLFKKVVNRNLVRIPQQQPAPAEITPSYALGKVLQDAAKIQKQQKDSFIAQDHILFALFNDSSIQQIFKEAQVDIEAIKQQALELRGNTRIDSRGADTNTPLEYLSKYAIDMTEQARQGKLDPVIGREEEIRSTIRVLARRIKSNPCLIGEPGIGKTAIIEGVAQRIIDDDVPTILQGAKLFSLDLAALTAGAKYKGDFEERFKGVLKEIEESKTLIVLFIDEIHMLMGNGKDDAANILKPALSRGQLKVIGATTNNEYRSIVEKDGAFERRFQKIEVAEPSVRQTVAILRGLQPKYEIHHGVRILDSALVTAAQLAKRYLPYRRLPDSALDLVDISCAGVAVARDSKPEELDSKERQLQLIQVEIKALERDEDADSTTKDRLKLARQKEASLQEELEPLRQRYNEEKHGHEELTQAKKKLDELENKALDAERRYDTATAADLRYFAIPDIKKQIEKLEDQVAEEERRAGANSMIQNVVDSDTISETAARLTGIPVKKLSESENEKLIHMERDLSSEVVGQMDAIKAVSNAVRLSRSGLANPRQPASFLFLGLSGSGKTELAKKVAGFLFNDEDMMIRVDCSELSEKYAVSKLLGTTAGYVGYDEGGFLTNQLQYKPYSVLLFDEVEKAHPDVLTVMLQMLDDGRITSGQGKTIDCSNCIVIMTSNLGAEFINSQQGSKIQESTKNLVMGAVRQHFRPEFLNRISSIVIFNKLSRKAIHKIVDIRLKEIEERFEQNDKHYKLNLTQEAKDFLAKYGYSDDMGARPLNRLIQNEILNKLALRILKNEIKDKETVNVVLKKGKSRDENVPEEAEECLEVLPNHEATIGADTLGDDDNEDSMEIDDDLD

Columns and labels:
Assay in all cases: condition: only in the absence of nucleotide (0.2 μM monomer); cross-linking; glutaraldehyde crosslinking in the absence of nucleotide, 0.2 μM monomer; 40 mM HEPES-KOH (pH 7.4), 150 mM KCl, 20 mM MgCl2, 1 mM DTT; both purified
[1] = target: Hsp104 (wild-type) (S. cerevisiae) (UniProt P31539)
[2] = target: Hsp104^R334M (S. cerevisiae) (UniProt P31539)
[3] = target: Hsp104^R419M (S. cerevisiae) (UniProt P31539)
[4] = target: Hsp104^R444M (S. cerevisiae) (UniProt P31539)
[5] = target: Hsp104^R495M (S. cerevisiae) (UniProt P31539)

Q: “Hsp104 (wild-type) (from UniProt P31539 1-908)” was tested. Which binding [1] did it give?
A: The binding was “no binding”.

Q: “Hsp104^R334M (from UniProt P31539 1-908)” was tested. Which binding [2] did it give?
A: Its binding is “no binding”.

Q: With “Hsp104^R419M (from UniProt P31539 1-908)” as the substance, how does the binding [3] read?
A: Its binding is “no binding”.

Q: How did the binding [4] turn out when “Hsp104^R444M (from UniProt P31539 1-908)” was run?
A: The binding was “no binding”.

Q: How did the binding [5] turn out when “Hsp104^R495M (from UniProt P31539 1-908)” was run?
A: The binding was “no binding”.
